Laboratory results reported in patent US20230416410A1.
No constants are given. Whether binding was seen depends on the method and setting. Some results given as binding are weak or reduced against the parent protein; the word gives no strength. Where a sequence is shown, tags or fusion partners need not be part of it.

T1: recombinant bovine FcgR3 (bovine) (UniProt P79107)
T1 sequence (chain, biotin on the BAP tag (BirA)): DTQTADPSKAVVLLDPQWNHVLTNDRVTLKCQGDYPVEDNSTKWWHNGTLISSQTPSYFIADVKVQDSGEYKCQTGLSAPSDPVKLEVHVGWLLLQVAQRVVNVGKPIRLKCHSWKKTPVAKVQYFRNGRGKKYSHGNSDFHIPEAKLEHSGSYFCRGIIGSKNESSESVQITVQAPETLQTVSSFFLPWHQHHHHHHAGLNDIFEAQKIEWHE

T2: recombinant bovine FcgR2 (bovine) (UniProt Q28110)
T2 sequence (chain, biotin on the BAP tag (BirA)): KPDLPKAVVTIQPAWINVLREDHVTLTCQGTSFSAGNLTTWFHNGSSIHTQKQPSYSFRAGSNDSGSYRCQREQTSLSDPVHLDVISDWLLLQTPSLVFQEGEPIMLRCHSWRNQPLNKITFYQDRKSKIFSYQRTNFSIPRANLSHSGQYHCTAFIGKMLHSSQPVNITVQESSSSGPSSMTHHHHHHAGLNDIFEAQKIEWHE


Experiments:
[1] = biological target: T1, recombinant bovine FcgR3 (bovine); assay: SPR Biacore, receptor on SA sensor; LS = low signal, indicating very weak binding
[2] = biological target: T1, recombinant bovine FcgR3 (bovine); assay: SPR Biacore
[3] = biological target: T2, recombinant bovine FcgR2 (bovine); assay: SPR Biacore
[4] = biological target: T2, recombinant bovine FcgR2 (bovine); assay: SPR Biacore, receptor on SA sensor; LS = low signal, indicating very weak binding

Binder	binding [1]	other results
CTLA4 Fc bIgG3b (Fc fusion) DMHVAQPAVVLASSRGVASFVCEYGSSGNAAEVRVTVLRQAGSQMTEVCAATYTVEDELAFLDDSTCTGTSSGNKVNLTIQGLRAMDTGLYICKVELMYPPPYYVGMGNGTQIYVIDPEPCPDSDTARRPVPTTPKTTIPPGKPTTQESEVEKTPCQCSKCPEPLGGLSVFIFPPKPKDTLTISGTPEVTCVVVDVGQDDPEVQFSWFVDDVEVHTARTKPREEQFNSTYRVVSALRIQHQDWLQGKEFKCKVNNKGLPAPIVRTISRTKGQAREPQVYVLAPPREELSKSTLSLTCLITGFYPEEIDVEWQRNGQPESEDKYHTTAPQLDADGSYFLYSRLRVNKSSWQEGDHYTCAVMHEALRNHYKEKSISRSPGK	–	binding [2]: binds; binding [3]: binds
CTLA4 Fc bIgG3bSAP (Fc fusion) DMHVAQPAVVLASSRGVASFVCEYGSSGNAAEVRVTVLRQAGSQMTEVCAATYTVEDELAFLDDSTCTGTSSGNKVNLTIQGLRAMDTGLYICKVELMYPPPYYVGMGNGTQIYVIDPEPCPDSDTARRPVPTTPKTTIPPGKPTTQESEVEKTPCQCSKCPEPLGGLSVFIFPPKPKDTLTISGTPEVTCVVVDVGQDDPEVQFSWFVDDVEVHTARTKPREEQFNSTYRVVSALRIQHQDWLQGKEFKCKVNNKGLSAPIVRTISRTKGQAREPQVYVLAPPREELSKSTLSLTCLITGFYPEEIDVEWQRNGQPESEDKYHTTAPQLDADGSYFLYSRLRVNKSSWQEGDHYTCAVMHEALRNHYKEKSISRSPGK	binds	–
CTLA4 Fc bIgG1bWin (Fc fusion) DMHVAQPAVVLASSRGVASFVCEYGSSGNAAEVRVTVLRQAGSQMTEVCAATYTVEDELAFLDDSTCTGTSSGNKVNLTIQGLRAMDTGLYICKVELMYPPPYYVGMGNGTQIYVIDPEPCPDSDDPTCKPSPCDCCPPPEAAGAPSVFIFPPKPKDTLTISGTPEVTCVVVDVGHDDPEVKFSWFVDDVEVNTATTKPREEQFNSTYRVVSALRIQHQDWTGGKEFKCKVHNEGLPAPIVRTISRTKGPAREPQVYVLAPPQEELSKSTVSLTCMVTSFYPDYIAVEWQRNGQPESEDKYGTTPPQLDADSSYFLYSKLRVDRNSWQEGDTYTCVVMHEALHNHYTQKSTSKSAGK	binds	–
CTLA4 Fc bIgG1bWinSAS (Fc fusion) DMHVAQPAVVLASSRGVASFVCEYGSSGNAAEVRVTVLRQAGSQMTEVCAATYTVEDELAFLDDSTCTGTSSGNKVNLTIQGLRAMDTGLYICKVELMYPPPYYVGMGNGTQIYVIDPEPCPDSDDPTCKPSPCDCCPPPEAAGAPSVFIFPPKPKDTLTISGTPEVTCVVVDVGHDDPEVKFSWFVDDVEVNTATTKPREEQFNSTYRVVSALRIQHQDWTGGKEFKCKVHNEGLSASIVRTISRTKGPAREPQVYVLAPPQEELSKSTVSLTCMVTSFYPDYIAVEWQRNGQPESEDKYGTTPPQLDADSSYFLYSKLRVDRNSWQEGDTYTCVVMHEALHNHYTQKSTSKSAGK	binds	–
CTLA4 Fc bIgG1bSAS (Fc fusion) DMHVAQPAVVLASSRGVASFVCEYGSSGNAAEVRVTVLRQAGSQMTEVCAATYTVEDELAFLDDSTCTGTSSGNKVNLTIQGLRAMDTGLYICKVELMYPPPYYVGMGNGTQIYVIDPEPCPDSDDPTCKPSPCDCCPPPELPGGPSVFIFPPKPKDTLTISGTPEVTCVVVDVGHDDPEVKFSWFVDDVEVNTATTKPREEQFNSTYRVVSALRIQHQDWTGGKEFKCKVHNEGLSASIVRTISRTKGPAREPQVYVLAPPQEELSKSTVSLTCMVTSFYPDYIAVEWQRNGQPESEDKYGTTPPQLDADSSYFLYSKLRVDRNSWQEGDTYTCVVMHEALHNHYTQKSTSKSAGK	binds	–
CTLA4 Fc bIgG1bWinSS (Fc fusion) DMHVAQPAVVLASSRGVASFVCEYGSSGNAAEVRVTVLRQAGSQMTEVCAATYTVEDELAFLDDSTCTGTSSGNKVNLTIQGLRAMDTGLYICKVELMYPPPYYVGMGNGTQIYVIDPEPCPDSDDPTCKPSPCDCCPPPEAAGAPSVFIFPPKPKDTLTISGTPEVTCVVVDVGHDDPEVKFSWFVDDVEVNTATTKPREEQFNSTYRVVSALRIQHQDWTGGKEFKCKVHNEGLPSSIVRTISRTKGPAREPQVYVLAPPQEELSKSTVSLTCMVTSFYPDYIAVEWQRNGQPESEDKYGTTPPQLDADSSYFLYSKLRVDRNSWQEGDTYTCVVMHEALHNHYTQKSTSKSAGK	binds	binding [4]: binds
CTLA4 Fc bIgG1bSAP (Fc fusion) DMHVAQPAVVLASSRGVASFVCEYGSSGNAAEVRVTVLRQAGSQMTEVCAATYTVEDELAFLDDSTCTGTSSGNKVNLTIQGLRAMDTGLYICKVELMYPPPYYVGMGNGTQIYVIDPEPCPDSDDPTCKPSPCDCCPPPELPGGPSVFIFPPKPKDTLTISGTPEVTCVVVDVGHDDPEVKFSWFVDDVEVNTATTKPREEQFNSTYRVVSALRIQHQDWTGGKEFKCKVHNEGLSAPIVRTISRTKGPAREPQVYVLAPPQEELSKSTVSLTCMVTSFYPDYIAVEWQRNGQPESEDKYGTTPPQLDADSSYFLYSKLRVDRNSWQEGDTYTCVVMHEALHNHYTQKSTSKSAGK	binds	–
CTLA4 Fc bIgG1b (Fc fusion) DMHVAQPAVVLASSRGVASFVCEYGSSGNAAEVRVTVLRQAGSQMTEVCAATYTVEDELAFLDDSTCTGTSSGNKVNLTIQGLRAMDTGLYICKVELMYPPPYYVGMGNGTQIYVIDPEPCPDSDDPTCKPSPCDCCPPPELPGGPSVFIFPPKPKDTLTISGTPEVTCVVVDVGHDDPEVKFSWFVDDVEVNTATTKPREEQFNSTYRVVSALRIQHQDWTGGKEFKCKVHNEGLPAPIVRTISRTKGPAREPQVYVLAPPQEELSKSTVSLTCMVTSFYPDYIAVEWQRNGQPESEDKYGTTPPQLDADSSYFLYSKLRVDRNSWQEGDTYTCVVMHEALHNHYTQKSTSKSAGK	–	binding [2]: binds; binding [3]: binds

Second part, led by results:

binding [1]	Binder	other results
binds	CTLA4 Fc bIgG3bWin (Fc fusion) DMHVAQPAVVLASSRGVASFVCEYGSSGNAAEVRVTVLRQAGSQMTEVCAATYTVEDELAFLDDSTCTGTSSGNKVNLTIQGLRAMDTGLYICKVELMYPPPYYVGMGNGTQIYVIDPEPCPDSDTARRPVPTTPKTTIPPGKPTTQESEVEKTPCQCSKCPEAAGALSVFIFPPKPKDTLTISGTPEVTCVVVDVGQDDPEVQFSWFVDDVEVHTARTKPREEQFNSTYRVVSALRIQHQDWLQGKEFKCKVNNKGLPAPIVRTISRTKGQAREPQVYVLAPPREELSKSTLSLTCLITGFYPEEIDVEWQRNGQPESEDKYHTTAPQLDADGSYFLYSRLRVNKSSWQEGDHYTCAVMHEALRNHYKEKSISRSPGK	–
binds	CTLA4 Fc bIgG3bWinSAS (Fc fusion) DMHVAQPAVVLASSRGVASFVCEYGSSGNAAEVRVTVLRQAGSQMTEVCAATYTVEDELAFLDDSTCTGTSSGNKVNLTIQGLRAMDTGLYICKVELMYPPPYYVGMGNGTQIYVIDPEPCPDSDTARRPVPTTPKTTIPPGKPTTQESEVEKTPCQCSKCPEAAGALSVFIFPPKPKDTLTISGTPEVTCVVVDVGQDDPEVQFSWFVDDVEVHTARTKPREEQFNSTYRVVSALRIQHQDWLQGKEFKCKVNNKGLSASIVRTISRTKGQAREPQVYVLAPPREELSKSTLSLTCLITGFYPEEIDVEWQRNGQPESEDKYHTTAPQLDADGSYFLYSRLRVNKSSWQEGDHYTCAVMHEALRNHYKEKSISRSPGK	–
binds	CTLA4 Fc bIgG3bSAS (Fc fusion) DMHVAQPAVVLASSRGVASFVCEYGSSGNAAEVRVTVLRQAGSQMTEVCAATYTVEDELAFLDDSTCTGTSSGNKVNLTIQGLRAMDTGLYICKVELMYPPPYYVGMGNGTQIYVIDPEPCPDSDTARRPVPTTPKTTIPPGKPTTQESEVEKTPCQCSKCPEPLGGLSVFIFPPKPKDTLTISGTPEVTCVVVDVGQDDPEVQFSWFVDDVEVHTARTKPREEQFNSTYRVVSALRIQHQDWLQGKEFKCKVNNKGLSASIVRTISRTKGQAREPQVYVLAPPREELSKSTLSLTCLITGFYPEEIDVEWQRNGQPESEDKYHTTAPQLDADGSYFLYSRLRVNKSSWQEGDHYTCAVMHEALRNHYKEKSISRSPGK	–
